Measurements: the M2OR odorant receptor database
Numbering of substitutions follows the chain as printed. The list shows a part of the results, in another mix than the full data. Calls are pooled over several reports, among them a noisy single-well screen. This is one part of the list.

Chains of the proteins cited; added tags and fusions are not shown. A line that says so, or that is headed by a name, gives the form on record, which may keep a tag or linker.
O4A15, as listed by the source: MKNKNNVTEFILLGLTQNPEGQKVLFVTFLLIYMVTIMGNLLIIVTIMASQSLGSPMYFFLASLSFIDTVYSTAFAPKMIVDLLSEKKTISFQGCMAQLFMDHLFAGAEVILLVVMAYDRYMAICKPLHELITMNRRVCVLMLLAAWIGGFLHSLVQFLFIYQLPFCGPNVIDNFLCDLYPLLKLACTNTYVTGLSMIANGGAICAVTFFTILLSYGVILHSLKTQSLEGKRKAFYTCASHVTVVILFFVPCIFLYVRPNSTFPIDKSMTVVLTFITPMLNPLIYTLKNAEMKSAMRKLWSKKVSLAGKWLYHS
O4F17, as listed by the source: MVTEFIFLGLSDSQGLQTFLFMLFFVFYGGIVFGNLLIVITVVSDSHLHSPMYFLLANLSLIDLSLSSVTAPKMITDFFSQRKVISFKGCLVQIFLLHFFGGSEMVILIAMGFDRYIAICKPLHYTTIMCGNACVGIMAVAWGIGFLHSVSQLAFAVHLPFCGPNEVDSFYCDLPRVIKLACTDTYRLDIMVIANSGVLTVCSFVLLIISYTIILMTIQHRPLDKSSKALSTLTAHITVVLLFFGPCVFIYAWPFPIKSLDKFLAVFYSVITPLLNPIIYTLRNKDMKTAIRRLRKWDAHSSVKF
O4C46, as listed by the source: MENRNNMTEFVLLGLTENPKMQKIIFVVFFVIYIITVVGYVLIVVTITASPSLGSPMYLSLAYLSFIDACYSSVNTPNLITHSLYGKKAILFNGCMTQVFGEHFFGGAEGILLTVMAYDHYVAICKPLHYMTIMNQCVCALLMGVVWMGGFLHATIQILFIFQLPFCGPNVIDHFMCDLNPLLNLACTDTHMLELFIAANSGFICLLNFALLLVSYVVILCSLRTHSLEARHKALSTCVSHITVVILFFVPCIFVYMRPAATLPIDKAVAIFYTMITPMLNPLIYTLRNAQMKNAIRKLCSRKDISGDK

Experiments:
Conditions in all cases: stereoisomer not certain
O2T11 = tested on: T1, O2T11
T1 sequence (whole entry): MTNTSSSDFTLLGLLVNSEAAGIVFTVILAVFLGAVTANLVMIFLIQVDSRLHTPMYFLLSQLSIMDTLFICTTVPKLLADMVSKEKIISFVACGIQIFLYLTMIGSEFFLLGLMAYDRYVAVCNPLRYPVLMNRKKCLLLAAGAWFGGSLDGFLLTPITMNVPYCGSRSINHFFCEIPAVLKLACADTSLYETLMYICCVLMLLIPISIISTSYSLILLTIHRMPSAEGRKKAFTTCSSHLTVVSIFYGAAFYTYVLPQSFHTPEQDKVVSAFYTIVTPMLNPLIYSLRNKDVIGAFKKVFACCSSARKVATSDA
Method in brief: (§1)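 Each receptor–molecule pair is labelled responsive or non-responsive (inactive) according to whether the original authors judged the measured signal statistically different from baseline. The data were taken from the main text and supplementary material of published papers and checked for typos and inconsistencies. Assay methods differed by source, with transient luciferase assays in mammalian cell lines being common.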

O2T29 [1] = tested on: T2, O2T29
T2 sequence (whole entry): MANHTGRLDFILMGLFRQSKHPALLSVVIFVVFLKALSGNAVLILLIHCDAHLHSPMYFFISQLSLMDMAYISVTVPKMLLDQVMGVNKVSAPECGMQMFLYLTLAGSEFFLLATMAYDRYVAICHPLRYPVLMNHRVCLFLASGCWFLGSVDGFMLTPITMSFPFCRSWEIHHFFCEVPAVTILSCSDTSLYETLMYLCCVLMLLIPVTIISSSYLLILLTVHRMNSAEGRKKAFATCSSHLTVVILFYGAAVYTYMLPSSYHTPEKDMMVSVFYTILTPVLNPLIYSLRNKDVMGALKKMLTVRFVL
Method in brief: as §1

O2T29 [2] = tested on: T3, O2T29; remark: listed apart in the source
T3 sequence (whole entry): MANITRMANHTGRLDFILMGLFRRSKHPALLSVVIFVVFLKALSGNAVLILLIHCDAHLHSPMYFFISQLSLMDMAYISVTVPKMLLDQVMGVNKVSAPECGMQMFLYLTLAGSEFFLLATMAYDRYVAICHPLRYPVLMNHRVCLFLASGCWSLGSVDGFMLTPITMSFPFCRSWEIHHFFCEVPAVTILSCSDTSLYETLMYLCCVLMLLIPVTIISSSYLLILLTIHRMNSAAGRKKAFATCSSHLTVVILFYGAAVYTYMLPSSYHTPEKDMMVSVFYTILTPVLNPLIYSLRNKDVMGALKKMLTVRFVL
Method in brief: as §1

O2T33 = tested on: T4, O2T33
T4 sequence (whole entry): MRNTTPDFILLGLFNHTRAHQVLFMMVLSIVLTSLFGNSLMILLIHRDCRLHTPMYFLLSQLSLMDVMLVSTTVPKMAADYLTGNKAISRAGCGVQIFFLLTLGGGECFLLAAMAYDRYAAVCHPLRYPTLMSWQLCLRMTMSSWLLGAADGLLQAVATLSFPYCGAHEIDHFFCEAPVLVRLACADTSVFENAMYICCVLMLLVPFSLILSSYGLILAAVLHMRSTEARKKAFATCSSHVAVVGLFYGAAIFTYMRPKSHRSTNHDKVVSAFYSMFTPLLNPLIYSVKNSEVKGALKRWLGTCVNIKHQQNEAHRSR
Method in brief: as §1

O2T34 = tested on: T5, O2T34
T5 sequence (whole entry): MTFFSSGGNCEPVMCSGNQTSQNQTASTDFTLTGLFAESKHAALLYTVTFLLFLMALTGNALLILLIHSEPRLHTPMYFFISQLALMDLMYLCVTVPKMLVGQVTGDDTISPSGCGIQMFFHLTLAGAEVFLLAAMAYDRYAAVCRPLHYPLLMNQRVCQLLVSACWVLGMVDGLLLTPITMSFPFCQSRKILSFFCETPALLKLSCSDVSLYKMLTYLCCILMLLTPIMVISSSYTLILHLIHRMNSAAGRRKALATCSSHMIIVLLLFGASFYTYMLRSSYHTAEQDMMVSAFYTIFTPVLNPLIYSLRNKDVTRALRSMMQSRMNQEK
Method in brief: as §1

O2T35 = tested on: T6, O2T35
T6 sequence (whole entry): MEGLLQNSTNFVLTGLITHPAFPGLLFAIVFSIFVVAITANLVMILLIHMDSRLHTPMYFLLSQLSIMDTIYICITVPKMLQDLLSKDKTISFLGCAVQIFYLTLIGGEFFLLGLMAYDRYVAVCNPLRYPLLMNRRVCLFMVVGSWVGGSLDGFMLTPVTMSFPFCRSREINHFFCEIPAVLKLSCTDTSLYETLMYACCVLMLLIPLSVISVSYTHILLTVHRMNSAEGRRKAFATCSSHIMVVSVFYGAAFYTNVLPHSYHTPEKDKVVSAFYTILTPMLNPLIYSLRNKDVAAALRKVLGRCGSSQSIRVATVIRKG
Method in brief: as §1

O4A15 = tested on: O4A15
Method in brief: as §1

O4A47 = tested on: T7, O4A47
T7 sequence (whole entry): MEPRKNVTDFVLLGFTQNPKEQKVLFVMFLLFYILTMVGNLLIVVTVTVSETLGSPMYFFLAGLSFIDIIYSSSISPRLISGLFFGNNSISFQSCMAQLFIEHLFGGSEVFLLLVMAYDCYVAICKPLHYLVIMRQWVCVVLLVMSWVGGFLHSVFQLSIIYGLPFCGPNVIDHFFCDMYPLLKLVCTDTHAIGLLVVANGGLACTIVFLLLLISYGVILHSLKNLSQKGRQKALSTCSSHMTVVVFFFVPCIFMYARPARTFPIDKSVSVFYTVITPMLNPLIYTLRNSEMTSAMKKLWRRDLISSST
Method in brief: as §1

O4C46 = tested on: O4C46
Method in brief: as §1

O4F17 [3] = tested on: T8, O4F17
T8 sequence (whole entry): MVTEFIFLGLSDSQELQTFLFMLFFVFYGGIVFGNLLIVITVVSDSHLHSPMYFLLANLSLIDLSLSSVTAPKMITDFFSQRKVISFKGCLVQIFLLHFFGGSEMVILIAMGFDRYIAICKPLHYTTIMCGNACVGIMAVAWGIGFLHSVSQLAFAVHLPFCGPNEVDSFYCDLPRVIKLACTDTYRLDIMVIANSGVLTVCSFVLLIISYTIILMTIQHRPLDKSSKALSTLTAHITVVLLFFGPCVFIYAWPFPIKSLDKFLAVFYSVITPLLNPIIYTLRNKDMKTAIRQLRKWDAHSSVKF
Method in brief: as §1

O4F17 [4] = tested on: T9, O4F17; remark: listed apart in the source
T9 sequence (whole entry): T8 sequence (whole entry) with E15G, Q293R
Method in brief: as §1

O4F21 = tested on: T10, O4F21
T10 sequence (whole entry): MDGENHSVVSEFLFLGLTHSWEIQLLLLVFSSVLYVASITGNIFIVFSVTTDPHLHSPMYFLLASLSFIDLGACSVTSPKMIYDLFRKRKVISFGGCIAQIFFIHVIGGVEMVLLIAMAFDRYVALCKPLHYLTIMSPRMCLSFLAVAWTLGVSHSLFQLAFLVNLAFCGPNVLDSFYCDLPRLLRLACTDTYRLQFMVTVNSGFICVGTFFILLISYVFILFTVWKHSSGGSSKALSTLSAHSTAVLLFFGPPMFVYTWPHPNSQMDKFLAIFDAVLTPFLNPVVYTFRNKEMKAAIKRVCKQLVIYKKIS
Method in brief: as §1

O51A4 = tested on: T11, O51A4
T11 sequence (whole entry): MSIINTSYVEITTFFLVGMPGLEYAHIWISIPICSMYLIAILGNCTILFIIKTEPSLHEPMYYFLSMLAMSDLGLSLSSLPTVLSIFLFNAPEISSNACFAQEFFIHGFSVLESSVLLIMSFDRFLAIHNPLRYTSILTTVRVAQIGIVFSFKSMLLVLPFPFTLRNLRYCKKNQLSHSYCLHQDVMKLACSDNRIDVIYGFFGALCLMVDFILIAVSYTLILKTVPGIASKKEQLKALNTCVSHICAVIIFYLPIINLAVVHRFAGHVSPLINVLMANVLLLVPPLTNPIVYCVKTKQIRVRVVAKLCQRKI
Method in brief: as §1

O51B4 = tested on: T12, O51B4
T12 sequence (whole entry): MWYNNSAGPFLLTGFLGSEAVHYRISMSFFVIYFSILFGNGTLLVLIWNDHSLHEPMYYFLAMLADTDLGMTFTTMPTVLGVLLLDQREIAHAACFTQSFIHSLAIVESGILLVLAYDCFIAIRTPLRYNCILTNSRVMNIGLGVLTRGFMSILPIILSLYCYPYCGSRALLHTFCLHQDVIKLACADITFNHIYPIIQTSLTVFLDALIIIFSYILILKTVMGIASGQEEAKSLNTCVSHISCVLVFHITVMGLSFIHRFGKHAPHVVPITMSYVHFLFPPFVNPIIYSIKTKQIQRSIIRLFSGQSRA
Method in brief: as §1

O51B5 = tested on: T13, O51B5
T13 sequence (whole entry): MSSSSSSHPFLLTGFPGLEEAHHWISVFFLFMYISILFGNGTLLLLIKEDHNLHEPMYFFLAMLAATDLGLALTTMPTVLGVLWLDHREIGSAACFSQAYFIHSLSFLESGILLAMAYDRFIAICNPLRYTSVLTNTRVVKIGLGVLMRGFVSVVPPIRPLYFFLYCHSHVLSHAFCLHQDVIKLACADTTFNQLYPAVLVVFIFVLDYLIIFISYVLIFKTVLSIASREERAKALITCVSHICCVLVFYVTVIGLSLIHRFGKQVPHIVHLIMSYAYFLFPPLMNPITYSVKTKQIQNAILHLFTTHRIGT
Method in brief: as §1

O51B6 = tested on: T14, O51B6
T14 sequence (whole entry): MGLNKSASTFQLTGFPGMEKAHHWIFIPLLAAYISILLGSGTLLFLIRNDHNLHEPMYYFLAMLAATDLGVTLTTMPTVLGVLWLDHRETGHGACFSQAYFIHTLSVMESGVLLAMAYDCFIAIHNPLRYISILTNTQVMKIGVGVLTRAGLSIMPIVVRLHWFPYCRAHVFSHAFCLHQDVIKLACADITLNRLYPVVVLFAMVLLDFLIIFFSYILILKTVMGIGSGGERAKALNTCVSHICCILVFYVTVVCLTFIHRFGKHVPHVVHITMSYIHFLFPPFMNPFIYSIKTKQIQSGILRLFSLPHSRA
Method in brief: as §1

O51E1 = tested on: T15, O51E1
T15 sequence (whole entry): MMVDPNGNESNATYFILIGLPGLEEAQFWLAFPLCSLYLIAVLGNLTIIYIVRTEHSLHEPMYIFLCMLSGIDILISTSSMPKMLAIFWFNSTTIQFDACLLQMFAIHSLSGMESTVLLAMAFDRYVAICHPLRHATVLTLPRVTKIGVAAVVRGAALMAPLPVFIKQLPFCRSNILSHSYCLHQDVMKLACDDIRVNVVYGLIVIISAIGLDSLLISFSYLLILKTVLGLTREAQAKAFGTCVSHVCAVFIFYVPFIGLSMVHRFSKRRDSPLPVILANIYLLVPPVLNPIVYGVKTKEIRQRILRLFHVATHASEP
Method in brief: as §1

O51F1 = tested on: T16, O51F1
T16 sequence (whole entry): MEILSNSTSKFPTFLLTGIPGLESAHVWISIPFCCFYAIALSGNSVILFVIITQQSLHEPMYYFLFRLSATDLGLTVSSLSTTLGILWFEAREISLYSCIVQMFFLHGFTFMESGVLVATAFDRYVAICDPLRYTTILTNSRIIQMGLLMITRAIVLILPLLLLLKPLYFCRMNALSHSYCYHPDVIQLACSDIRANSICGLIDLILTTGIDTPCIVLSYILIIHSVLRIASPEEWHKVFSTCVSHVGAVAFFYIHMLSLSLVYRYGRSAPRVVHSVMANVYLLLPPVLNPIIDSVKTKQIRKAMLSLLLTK
Method in brief: as §1

O51F2 = tested on: T17, O51F2
T17 sequence (whole entry): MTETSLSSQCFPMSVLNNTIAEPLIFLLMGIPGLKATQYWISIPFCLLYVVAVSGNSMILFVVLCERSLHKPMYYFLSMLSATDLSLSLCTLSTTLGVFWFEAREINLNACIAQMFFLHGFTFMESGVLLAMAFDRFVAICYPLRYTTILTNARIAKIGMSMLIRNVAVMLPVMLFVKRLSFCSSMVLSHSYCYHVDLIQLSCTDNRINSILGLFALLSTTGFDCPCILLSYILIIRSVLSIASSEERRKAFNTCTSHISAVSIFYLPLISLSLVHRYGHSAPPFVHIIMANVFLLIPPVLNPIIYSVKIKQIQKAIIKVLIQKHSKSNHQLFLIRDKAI
Method in brief: as §1

Measured: odorant receptor agonist call;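 further: active if original authors judged signal statistically different from baseline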

COC(=O)c1ccccc1O
inactive: O2T11 | O2T29 [1] | O2T29 [2] | O2T33 | O2T34 | O2T35 | O4A15 | O4A47 | O4C46 | O4F17 [3] | O4F17 [4] | O4F21 | O51A4 | O51B4 | O51B5 | O51B6 | O51E1 | O51F1 | O51F2

O=C1CCCCCCCCCCCCCCO1
inactive: O2T11 | O2T29 [1] | O2T29 [2] | O2T33 | O2T34 | O2T35 | O4A15 | O4A47 | O4C46 | O4F17 [3] | O4F17 [4] | O4F21 | O51A4 | O51B4 | O51B5 | O51B6 | O51E1 | O51F1 | O51F2

CC(C)C=O
inactive: O2T11 | O2T29 [1] | O2T29 [2] | O2T33 | O2T34 | O2T35 | O4A15 | O4A47 | O4C46 | O4F17 [3] | O4F21 | O51A4 | O51B4 | O51B5 | O51B6 | O51E1 | O51F1 | O51F2
active: O4F17 [4]

CC12CCC(C1)C(C)(C)C2=O (stereo unspecified)
inactive: O2T11 | O2T29 [1] | O2T29 [2] | O2T33 | O2T34 | O2T35 | O4A15 | O4A47 | O4C46 | O4F17 [3] | O4F17 [4] | O4F21 | O51A4 | O51B4 | O51B5 | O51B6 | O51E1 | O51F1 | O51F2
